± gives the standard deviation of the averaged measurements. Most entries show no effect beyond the scatter of the controls.
How the values were obtained:
Assay in all cases: level (log10 ratio to DMSO vehicle control); higher = higher biomarker level / cell amount than vehicle control
[1] = compound: FC(F)(F)C(F)(F)C(F)(F)C(F)(F)C(F)(F)C(F)(F)C(F)(F)CCI [1-Iodo-1H,1H,2H,2H-perfluorononane]; details: in DMSO
Protocol: (§1)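 BioMAP Diversity Plus panel of 12 human primary cell co-culture systems (3C, 4H, LPS, SAg, BT, BF4T, BE3C, CASM3C, HDF3CGF, KF3CT, MyoF, Mphg). Compounds were added 1 h before stimulation and left for 24 h (MyoF 48 h; BT 72 h for soluble read-outs or 6 d for IgG). Biomarkers were read by ELISA, cytotoxicity by SRB, PBMC viability and proliferation by Alamar Blue. Each well value was divided by the mean of 8 DMSO control wells on the same plate and log10 transformed; duplicate blinded samples were tested at 4 concentrations.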

[2] = compound: NC(=O)C(F)(F)C(F)(F)C(F)(F)C(F)(F)C(F)(F)C(F)(F)C(F)(F)F [Perfluorooctanamide]; details: 2200 nM; in DMSO
Protocol: as §1

[3] = compound: C=CC(=O)OCC(F)(F)C(F)(F)C(F)(F)C(F)(F)COC(=O)C=C [1H,1H,6H,6H-Perfluorohexane-1,6-diol diacrylate]; details: 2200 nM; in DMSO
Protocol: as §1

[4] = compound: FC(F)C(F)(F)COCC1CO1 [((2,2,3,3-Tetrafluoropropoxy)methyl)oxirane]; details: 2200 nM; in DMSO
Protocol: as §1

[5] = compound: O=C(O)C(F)(F)C(F)(F)C(F)(F)C(F)(F)C(F)(F)C(F)(F)C(F)(F)C(F)F [9-H-Perfluorononanoic acid]; details: 2200 nM; in DMSO
Protocol: as §1

[6] = compound: FC(F)(F)C(F)(F)C(F)(F)C(F)(F)C(F)(F)C(F)(F)C(F)(F)I [1-Iodopentadecafluoroheptane]; details: in DMSO
Protocol: as §1

[7] = compound: O=S(=O)(Cl)C(F)(F)C(F)(F)C(F)(F)C(F)(F)C(F)(F)C(F)(F)C(F)(F)C(F)(F)F [Perfluoro-1-octanesulfonyl chloride]; details: 2200 nM; in DMSO
Protocol: as §1

[8] = compound: OCCC(F)(F)C(F)(F)C(F)(F)C(F)(F)C(F)(F)C(F)(F)C(F)(F)C(F)(F)F [8:2 Fluorotelomer alcohol]; details: 2200 nM; in DMSO
Protocol: as §1

[9] = compound: O=P(O)(O)CCC(F)(F)C(F)(F)C(F)(F)C(F)(F)C(F)(F)C(F)(F)C(F)(F)C(F)(F)F [((Perfluorooctyl)ethyl)phosphonic acid]; details: 2200 nM; in DMSO
Protocol: as §1

[10] = compound: O=C(O)C(F)(F)C(F)(F)F [Perfluoropropanoic acid]; details: 2200 nM; in DMSO
Protocol: as §1

[11] = compound: O=C(O)C=CC(F)(C(F)(F)F)C(F)(F)F [3-(Perfluoroisopropyl)-2-propenoic acid]; details: in DMSO
Protocol: as §1

[12] = compound: O=C(O)C(F)(F)C(F)(F)OC(F)(F)F [Perfluoro-3-methoxypropanoic acid]; details: 2200 nM; in DMSO
Protocol: as §1

[13] = compound: O=C(O)C(F)(F)OC(F)(F)C(F)(F)OC(F)(F)C(=O)O [Perfluoro-3,6-dioxaoctane-1,8-dioic acid]; details: 2200 nM; in DMSO
Protocol: as §1

[14] = compound: C=C(C)C(=O)OCC(F)(F)C(F)(F)C(F)(F)F [2,2,3,3,4,4,4-Heptafluorobutyl methacrylate]; details: 2200 nM; in DMSO
Protocol: as §1

[15] = compound: O=C(O)C(F)(F)C(F)(F)C(F)(F)C(F)(F)C(F)(F)C(F)(F)C(F)(F)C(F)(F)C(F)(F)C(F)(F)F [Perfluoroundecanoic acid]; details: in DMSO
Protocol: as §1

[16] = compound: O=C(O)C(F)(F)OC(F)(F)C(F)(F)OC(F)(F)C(F)(F)C(F)(F)C(F)(F)F [Perfluoro-3,6-dioxadecanoic acid]; details: 2200 nM; in DMSO
Protocol: as §1

[17] = compound: O=C(O)C(F)(F)C(F)(F)C(F)(F)F [Perfluorobutanoic acid]; details: 2200 nM; in DMSO
Protocol: as §1

[18] = compound: OCC(F)(F)C(F)(F)C(F)(F)C(F)(F)C(F)(F)C(F)(F)C(F)(F)C(F)(F)C(F)(F)C(F)(F)C(F)(F)F [11:1 Fluorotelomer alcohol]; details: in DMSO
Protocol: as §1

Test System | level (log10) ([1]; 740 nM) | level (log10) ([1]; 2200 nM) | level (log10) ([1]; 6700 nM) | level (log10) ([1]; 20000 nM) | level (log10) [2] | level (log10) [3] | level (log10) [4] | level (log10) [5] | level (log10) ([6]; 740 nM) | level (log10) ([6]; 2200 nM) | level (log10) ([6]; 6700 nM) | level (log10) ([6]; 20000 nM) | level (log10) [7] | level (log10) [8] | level (log10) [9] | level (log10) [10] | level (log10) ([11]; 2200 nM) | level (log10) ([11]; 6700 nM) | level (log10) ([11]; 20000 nM) | level (log10) ([11]; 60000 nM) | level (log10) [12] | level (log10) [13] | level (log10) [14] | level (log10) ([15]; 740 nM) | level (log10) ([15]; 2200 nM) | level (log10) [16] | level (log10) [17] | level (log10) ([18]; 370 nM) | level (log10) ([18]; 1100 nM) | level (log10) ([18]; 3300 nM) | level (log10) ([18]; 10000 nM)
BT:sIL-2 | -0.0125 ± 0.0035 | -0.0185 ± 0.073 | 0.0055 ± 0.0035 | -0.0045 ± 0.019 | -0.0565 ± 0.013 | -0.181 ± 0.044 | 0.074 ± 0.023 | 0.0425 ± 0.076 | -0.0605 ± 0.035 | -0.012 ± 0.0085 | -0.113 ± 0.07 | -0.017 ± 0.081 | 0.054 ± 0.081 | 0.0475 ± 0.087 | 0.029 ± 0.15 | -0.0505 ± 0.04 | 0.0125 ± 0.032 | 0.029 ± 0.058 | -0.049 ± 0.12 | 0.001 ± 0.0085 | 0.007 ± 0.078 | -0.0525 ± 0.015 | -0.0065 ± 0.067 | -0.055 ± 0.028 | 0 ± 0.03 | 0.0445 ± 0.029 | -0.017 ± 0.02 | 0.0575 ± 0.013 | 0.108 ± 0.058 | 0.0255 ± 0.083 | -0.02 ± 0.073
LPS:sPGE2 | -0.0175 ± 0.046 | 0.0225 ± 0.015 | -0.0095 ± 0.0021 | -0.03 ± 0.017 | -0.027 ± 0.069 | 0.0155 ± 0.059 | -0.0345 ± 0.026 | 0.0065 ± 0.039 | 0.007 ± 0.051 | 0.032 ± 0.027 | -0.062 ± 0.013 | -0.103 ± 0.027 | 0.011 ± 0.055 | -0.021 ± 0.018 | 0.0115 ± 0.0078 | -0.0035 ± 0.0021 | 0.01 ± 0.035 | 0.01 ± 0.065 | 0.046 ± 0.023 | 0.0575 ± 0.025 | -0.0165 ± 0.096 | 0.0015 ± 0.0092 | 0.057 ± 0.03 | -0.026 ± 0.031 | -0.031 ± 0.0057 | -0.007 ± 0.016 | -0.007 ± 0.03 | 0.117 ± 0.036 | 0.151 ± 0.075 | 0.212 ± 0.0064 | 0.211 ± 0.044
LPS:CD141/Thrombomodulin | 0.0025 ± 0.028 | -0.029 ± 0.03 | -0.0265 ± 0.0021 | -0.024 ± 0.0057 | 0.0185 ± 0.005 | -0.0075 ± 0.013 | -0.0055 ± 0.019 | 0.0405 ± 0.0035 | 0.0245 ± 0.044 | -0.013 | 0.0215 ± 0.023 | -0.024 ± 0.075 | -0.0305 ± 0.056 | -0.0285 ± 0.12 | -0.003 ± 0.016 | -0.014 ± 0.044 | -0.022 ± 0.025 | -0.024 ± 0.037 | -0.022 ± 0.0057 | -0.036 ± 0.02 | 0.027 ± 0.067 | 0.001 ± 0.038 | -0.011 ± 0.016 | 0.0185 ± 0.0021 | 0.036 ± 0.013 | -0.01 ± 0.0014 | 0.0075 ± 0.069 | -0.0265 ± 0.021 | -0.0285 ± 0.015 | -0.0185 ± 0.012 | -0.0035 ± 0.013
CASM3C:CD142/Tissue Factor | -0.0165 ± 0.023 | 0.012 ± 0.031 | 0.0155 ± 0.049 | -0.055 ± 0.0028 | -0.0035 ± 0.032 | -0.0075 ± 0.039 | 0.023 ± 0.018 | -0.0375 ± 0.022 | 0.024 ± 0.072 | 0.004 ± 0.013 | -0.0185 ± 0.016 | -0.043 ± 0.024 | -0.0095 ± 0.049 | -0.012 ± 0.04 | 0.0045 ± 0.11 | 0.0305 ± 0.11 | 0.0015 ± 0.039 | -0.037 ± 0.028 | -0.0315 ± 0.053 | -0.01 ± 0.067 | -0.0075 ± 0.05 | 0.009 ± 0.045 | -0.001 ± 0.02 | -0.034 ± 0.044 | -0.069 ± 0.011 | 0.0135 ± 0.021 | -0.0205 ± 0.00071 | 0.012 ± 0.0085 | -0.013 ± 0.02 | -0.0225 ± 0.016 | -0.038 ± 0.02

Reference: the supplement of paper PMC10331698
